No constants are given. Whether binding was seen depends on the method and setting. In cells and extracts the contact can be indirect. Some binding calls cover weakened binding; strength is not graded here.
Key:
[1] = molecular target: STAT2 (human (endogenous in Calu-3)), P52630; assay: co-IP; details: remark: other sources report otherwise
[2] = molecular target: T1, STAT1 (human (endogenous in Calu-3)), P42224; assay: co-IP; details: remark: other sources report otherwise
T1 chain: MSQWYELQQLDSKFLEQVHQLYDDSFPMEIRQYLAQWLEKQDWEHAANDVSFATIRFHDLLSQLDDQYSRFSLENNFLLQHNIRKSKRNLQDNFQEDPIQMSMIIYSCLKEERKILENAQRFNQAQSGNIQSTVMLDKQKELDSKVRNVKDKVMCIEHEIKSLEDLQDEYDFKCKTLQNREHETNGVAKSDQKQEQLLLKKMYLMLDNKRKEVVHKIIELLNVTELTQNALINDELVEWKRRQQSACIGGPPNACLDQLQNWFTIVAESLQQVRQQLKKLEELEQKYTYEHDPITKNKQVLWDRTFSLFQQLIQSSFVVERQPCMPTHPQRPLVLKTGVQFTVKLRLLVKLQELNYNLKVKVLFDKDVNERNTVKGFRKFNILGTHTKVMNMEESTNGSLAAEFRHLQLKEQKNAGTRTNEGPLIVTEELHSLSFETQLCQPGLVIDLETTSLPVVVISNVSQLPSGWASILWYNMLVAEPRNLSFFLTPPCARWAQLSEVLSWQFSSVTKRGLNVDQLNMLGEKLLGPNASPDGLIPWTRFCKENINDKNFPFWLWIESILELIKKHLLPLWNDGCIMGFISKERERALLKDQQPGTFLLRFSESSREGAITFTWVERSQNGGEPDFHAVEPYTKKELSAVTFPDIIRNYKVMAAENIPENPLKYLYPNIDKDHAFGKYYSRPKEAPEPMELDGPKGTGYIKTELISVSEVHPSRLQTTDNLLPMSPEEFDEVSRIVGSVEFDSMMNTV

B1: IRF9, Q00978 1-393 (protein)
chain: MASGRARCTRKLRNWVVEQVESGQFPGVCWDDTAKTMFRIPWKHAGKQDFREDQDAAFFKAWAIFKGKYKEGDTGGPAVWKTRLRCALNKSSEFKEVPERGRMDVAEPYKVYQLLPPGIVSGQPGTQKVPSKRQHSSVSSERKEEEDAMQNCTLSPSVLQDSLNNEEEGASGGAVHSDIGSSSSSSSPEPQEVTDTTEAPFQGDQRSLEFLLPPEPDYSLLLTFIYNGRVVGEAQVQSLDCRLVAEPSGSESSMEQVLFPKPGPLEPTQRLLSQLERGILVASNPRGLFVQRLCPIPISWNAPQAPPGPGPHLLPSNECVELFRTAYFCRDLVRYFQGLGPPPKFQVTLNFWEESHGSSHTPQNLITVKMEQAFARYLLEQTPEQQAAILSLV
binding [1]: binds
binding [2]: binds

Source: paper doi:10.1101/2021.07.23.453505
